Reference: US7026280B2, “LV V-Haemorphin-7 neuroactive peptide and methods of use” (Howard Florey Institute of Experimental Physiology, priority 1996, dated 2006)
Some results were stated once for a whole list of compounds, not compound by compound. For part of these data: For at least one compound, name, drawing or mass did not settle the structure. Where a SMILES comes first, the peptide text is derived from it. [ ]: non-standard residue; d: D form. Nle = CCCC[C@H](N)C(=O)O

How the values were obtained:
[1] = molecular target: T1, embryonic chicken Ang II binding site (Gallus gallus, UniProt P79785); settings: read-out: IC50 for competing for 125I[Sar1Ile8]Ang II binding
T1 sequence (P79785 1-359): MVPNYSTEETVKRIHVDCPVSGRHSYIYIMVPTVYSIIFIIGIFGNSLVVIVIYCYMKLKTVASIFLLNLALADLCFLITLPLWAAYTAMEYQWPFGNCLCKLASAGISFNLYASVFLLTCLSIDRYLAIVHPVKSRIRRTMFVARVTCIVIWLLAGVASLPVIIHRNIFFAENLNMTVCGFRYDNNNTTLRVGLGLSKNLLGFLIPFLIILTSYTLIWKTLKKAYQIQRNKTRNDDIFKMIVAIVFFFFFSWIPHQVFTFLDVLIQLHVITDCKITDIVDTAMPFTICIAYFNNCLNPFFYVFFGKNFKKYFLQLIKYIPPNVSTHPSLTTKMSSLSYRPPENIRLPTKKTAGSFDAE

AT4 receptor = assay: Competition for 125I-Ang IV binding to bovine adrenal membranes; settings: read-out: Affinity in competing for 125I-Ang IV binding

Compound | IC50 [1] [µM] | IC50 (AT4 receptor) [µM]
CCCC[C@H](N)C(=O)N[C@@H](Cc1ccc(O)cc1)C(=O)N[C@H](C(N)=O)[C@@H](C)CC [Nle^1-Y-I-amide] (H-[Nle]-Tyr-Ile-NH2; N-terminus assumed) | > 100 | –
Cc1cc(Cn2cnc3c2C[C@@H](C(=O)O)N(C(=O)C(c2ccccc2)c2ccccc2)C3)ccc1N(C)C [PD 123319] | > 100 | –
LVVYPWTQRF [LVV-haemorphin-7] | – | 0.001 to 0.005
